# This is one part of the list.
# Sequences of proteins named here, by UniProt entry; tags and fusion partners are left off.
# UniProt Q0JBA9, entry or part of it: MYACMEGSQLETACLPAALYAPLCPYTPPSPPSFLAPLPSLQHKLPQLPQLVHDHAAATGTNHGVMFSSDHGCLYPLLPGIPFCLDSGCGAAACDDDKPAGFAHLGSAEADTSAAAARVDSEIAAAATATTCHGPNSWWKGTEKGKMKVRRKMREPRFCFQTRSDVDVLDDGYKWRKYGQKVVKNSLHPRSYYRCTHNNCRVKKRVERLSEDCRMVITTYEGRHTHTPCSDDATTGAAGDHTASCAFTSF
# Biological target: OsWRKY34 (Oryza sativa, UniProt Q0JBA9 1-250)
# Assay: protein-binding microarray (RPBM); PBS, 2% BSA, 51.3 ng/ul salmon testes DNA, 50 uM zinc acetate, 200 nM TF, 25 C, 1 h; high values mean tight binding
# Details: protein: recombinant; tags: N-terminal polyhistidine and DsRed monomer fusion (pET32a); label: CyDye5-dUTP incorporated in the synthesized complementary strand; 3' TTTTT single-stranded linker to array surface; dsDNA, one strand shown
# In short: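 Polyhistidine-tagged DsRed fusions of transcription factors, joined at the N-terminus, were expressed in E. coli BL21-CodonPlus and isolated on Ni–NTA. They were incubated at 200 nM for 1 h at 25 °C on a custom Agilent array, double-stranded and BSA-blocked, in PBS with 2% BSA, salmon testes DNA and 50 µM zinc acetate. The binding signal is per-feature fluorescence intensity (arbitrary units) read on an Axon 4000B scanner after washing.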
row,Sequence,binding signal
1,CACCGCACCTACACCCACTCACTCTCACCATCCATCGGGACGGAGTCACCTAGTGCAG,9070 fluorescence intensity (a.u.)
2,CGCCTGACGACGCAACGCCAATGCCAAGAACCACCACCACCGGAGTCACCTAGTGCAG,8220 fluorescence intensity (a.u.)
3,CTAACTGCATCCACCATTCCACCGTCATCCTCGCCGTCCCCGGAGTCACCTAGTGCAG,11800 fluorescence intensity (a.u.)
4,GCCGTCTGCCTCCCACCACTTGACAACAACAAAGTCTCTCCGGAGTCACCTAGTGCAG,10300 fluorescence intensity (a.u.)
5,TGTTTGTGGATTATAAAGCGAGCACTACATTGTTTTGTATCGGAGTCACCTAGTGCAG,10500 fluorescence intensity (a.u.)
6,TGTTTGTGGGGTGAGACAAGTGGAATAAGAGTGCTACTATCGGAGTCACCTAGTGCAG,8330 fluorescence intensity (a.u.)
7,TCCCCAAGGATCCTATCTACAAGATCTGCTGCTTCGGCGACGGAGTCACCTAGTGCAG,9130 fluorescence intensity (a.u.)
8,ACCCGACCGCCTCCATGGCTTCTTCGAGGACCACCAGACCCGGAGTCACCTAGTGCAG,8150 fluorescence intensity (a.u.)
9,TACAGGGACAACCCGCGCGACATCCCGCTCAACTACGCCACGGAGTCACCTAGTGCAG,9170 fluorescence intensity (a.u.)
10,CATAGCCTCGACATTACTAGCCAAGTACACCTGTTGGTCCCGGAGTCACCTAGTGCAG,8680 fluorescence intensity (a.u.)
11,ACACCATTGACTTTTTAATATGTGTTTGACCATTCGTCTTCGGAGTCACCTAGTGCAG,19200 fluorescence intensity (a.u.)
12,TATATGTGTGCTGTGATTTTATTTTTATTCCTCACCAAAACGGAGTCACCTAGTGCAG,11300 fluorescence intensity (a.u.)
13,GCCCGAACATTCCCCATGAAACACTCTATATAATAACCGACGGAGTCACCTAGTGCAG,9180 fluorescence intensity (a.u.)
14,CTATTATGTGCATTTTGTTTTTTATATGTTGCTCTTCTAACGGAGTCACCTAGTGCAG,9450 fluorescence intensity (a.u.)
15,AAATTTGTTAGACAAACTCCTATTATTTGCATTATCGCCTCGGAGTCACCTAGTGCAG,8250 fluorescence intensity (a.u.)
16,TCTCTTCTTTCATGTAATGAAACTGTTGCCCGTGTAATCTCGGAGTCACCTAGTGCAG,8560 fluorescence intensity (a.u.)
17,GCAACTAACCGCGCGTCTTCCTCGCATCAGCCGCGTCATTCGGAGTCACCTAGTGCAG,11300 fluorescence intensity (a.u.)
18,CTTTGCTTGCTTTGCCTGCCTCGCTTCGCTCGCATCACGTCGGAGTCACCTAGTGCAG,11100 fluorescence intensity (a.u.)
19,TTTTATTTTTTTTATTTCACCCTATCTCTTCCTTGCGTCTCGGAGTCACCTAGTGCAG,8150 fluorescence intensity (a.u.)
20,CATCATTGTACTGTTAATTAAATCATCATGGTCATTATCACGGAGTCACCTAGTGCAG,9360 fluorescence intensity (a.u.)
21,CATAAAACTACATATACTTTGCACGATCTATCACAAAACTCGGAGTCACCTAGTGCAG,8300 fluorescence intensity (a.u.)

# A few values from the list.
# Value of TATATGTGTGCTGTGATTTTATTTTTATTCCTCACCAAAACGGAGTCACCTAGTGCAG under binding signal: 11300 fluorescence intensity (a.u.)
# Value of AAATTTGTTAGACAAACTCCTATTATTTGCATTATCGCCTCGGAGTCACCTAGTGCAG under binding signal: 8250 fluorescence intensity (a.u.)
# Value of CATAAAACTACATATACTTTGCACGATCTATCACAAAACTCGGAGTCACCTAGTGCAG under binding signal: 8300 fluorescence intensity (a.u.)

# An excerpt of these results, with tabs.
row	Sequence	binding signal
20	CATCATTGTACTGTTAATTAAATCATCATGGTCATTATCACGGAGTCACCTAGTGCAG	9360 fluorescence intensity (a.u.)
21	CATAAAACTACATATACTTTGCACGATCTATCACAAAACTCGGAGTCACCTAGTGCAG	8300 fluorescence intensity (a.u.)

# The results go on:

row,Sequence,binding signal
1,ACCCATGCATGATCACCTTGTTGACCTAGTACTGATGATGCGGAGTCACCTAGTGCAG,9850 fluorescence intensity (a.u.)
2,ACCATTCGTCCATATATTGCCACCGCTTCGTAGCTCAAGCCGGAGTCACCTAGTGCAG,9860 fluorescence intensity (a.u.)
3,ACTAGACTACCAGTAACTTTTCCTTTCTTTTTATTTTTTTCGGAGTCACCTAGTGCAG,9980 fluorescence intensity (a.u.)
4,ACTTGGGTATTACGTTTCCCTGTATATTATGGAACGGCCTCGGAGTCACCTAGTGCAG,9570 fluorescence intensity (a.u.)
5,TGCAATTTCATTTTGGACATTTTTACTGGGGCACCAAAATCGGAGTCACCTAGTGCAG,10300 fluorescence intensity (a.u.)
6,AGGCACCACCATTCCCTCCTCACCACACACACCCCAATCTCGGAGTCACCTAGTGCAG,8040 fluorescence intensity (a.u.)
7,TTTGCTTACCTCACACTTACTGTACACACCAAACATAATACGGAGTCACCTAGTGCAG,8350 fluorescence intensity (a.u.)
8,CCCATTTAAAGCCGTGCACATGGCCCGAGGTTCTCCACTCCGGAGTCACCTAGTGCAG,8020 fluorescence intensity (a.u.)
9,GTGACAGCGCTCATTCTGTCGCGGATTGCCGGATTCGTTTCGGAGTCACCTAGTGCAG,10300 fluorescence intensity (a.u.)
10,CACACACAAACACCTACCCTTCTCTCCCGTGAGGCTGTGACGGAGTCACCTAGTGCAG,8510 fluorescence intensity (a.u.)
11,CATGCAGGAGGTTATCCGCTGTGTCTTCGCTCGCCTGCCTCGGAGTCACCTAGTGCAG,9720 fluorescence intensity (a.u.)
12,TTCAATCCCTTCACCGCCTTACAATTTTAACGTTACACCGCGGAGTCACCTAGTGCAG,8370 fluorescence intensity (a.u.)
13,GAGTACTCCACTGCTACTATCTTTGTCCTGCAGCAATCTCCGGAGTCACCTAGTGCAG,15000 fluorescence intensity (a.u.)
14,TGCACTTCTTTTTTTTTTGTCGGGGTATGAATCGCTACCACGGAGTCACCTAGTGCAG,9880 fluorescence intensity (a.u.)
15,ACACTGAAACCTAACACCAGCTGGTGCGTTTCATTTCAAACGGAGTCACCTAGTGCAG,8140 fluorescence intensity (a.u.)
16,CGGGGTGGGAGCAGGGGTCGCGCGGCGGGGTGCGGCCATGCGGAGTCACCTAGTGCAG,10100 fluorescence intensity (a.u.)
17,GGTATGGTCAGTCTCATCAGTGCCCATCTCCTCTCGCTACCGGAGTCACCTAGTGCAG,8230 fluorescence intensity (a.u.)
18,CAAGGTTTACTAATGTTTTGCCTCTTGTTTTCCGTTTGTACGGAGTCACCTAGTGCAG,9310 fluorescence intensity (a.u.)
19,GGGTTCTGGGGCAGGGAGCTCATCCTCCCGGTCGACGGCGCGGAGTCACCTAGTGCAG,8550 fluorescence intensity (a.u.)
20,TTTGCTTCCAGCTTCTTGGGATTGCTCTGTTTCTTGCTGACGGAGTCACCTAGTGCAG,8590 fluorescence intensity (a.u.)
21,CCATTTCCCGCACTGCAATTCCCACACTTGCACGCACACACGGAGTCACCTAGTGCAG,10600 fluorescence intensity (a.u.)

row,Sequence,binding signal
1,ATGGGCATTGACTTCCACGCCCACCTTGTTGCCTCCGCTGCGGAGTCACCTAGTGCAG,8750 fluorescence intensity (a.u.)
2,CGTGATCCAAGTATCCAACACTACAGCGCATGGTCTGTTCCGGAGTCACCTAGTGCAG,9880 fluorescence intensity (a.u.)
3,TTCTTGGACCACCCAGTTATCTGCCTTTTTTTATTTTTTTCGGAGTCACCTAGTGCAG,8930 fluorescence intensity (a.u.)
4,GCACCACGATACACGTGCATCTACTCCTAGTCCTACTGCTCGGAGTCACCTAGTGCAG,9180 fluorescence intensity (a.u.)
5,TGAGAGTCCCTCATTTTTTATCTAGCGTAACATGTTCTTCCGGAGTCACCTAGTGCAG,8120 fluorescence intensity (a.u.)
6,TTCTAAAAAAAAACTTTGTTCTTGTTTGGGCCTCTCGCGACGGAGTCACCTAGTGCAG,8180 fluorescence intensity (a.u.)
7,CGTCGGGGTTGGGGTTGGGGCTGGGGCCGGCGCCGACGCCCGGAGTCACCTAGTGCAG,13400 fluorescence intensity (a.u.)
8,AGTGTCCATTCTATTTTAATTCTTTGCGCGTTGTGAGGTACGGAGTCACCTAGTGCAG,9860 fluorescence intensity (a.u.)
9,CCGTCACCCGTCGCCTCCGCATGCCCACACACACCACGATCGGAGTCACCTAGTGCAG,9510 fluorescence intensity (a.u.)
10,GTTGTGACTACCCTCAGTCCGTCGTCTAAGTCAAATAATTCGGAGTCACCTAGTGCAG,9290 fluorescence intensity (a.u.)
11,TCCTTCTCCAACCAGTCATTGCGGTCGCCTTTCTTCATCACGGAGTCACCTAGTGCAG,9450 fluorescence intensity (a.u.)
12,GCATGTTCTTTTTACATTCGTGTAATTATATTTCTATTATCGGAGTCACCTAGTGCAG,9850 fluorescence intensity (a.u.)
13,ATCGATCTGCCTTTTGAGTTTTGTACACATCCATCTTTTCCGGAGTCACCTAGTGCAG,14200 fluorescence intensity (a.u.)
14,AAACGCCGTTCCTTTTTTCTTTTTTCTCTCCCGATCGATCCGGAGTCACCTAGTGCAG,8050 fluorescence intensity (a.u.)
15,GGCATCCTCAAATTCCACCCTTTTCACCCTGTTTGCACTTCGGAGTCACCTAGTGCAG,8420 fluorescence intensity (a.u.)
16,ATCAAGTCACCAGCTACATGGCATTTTGGCCTCAACTCTCCGGAGTCACCTAGTGCAG,8340 fluorescence intensity (a.u.)
17,TCTACCCGGAGCTCTGCCTGTCCACGCTCGCCGACATCCCCGGAGTCACCTAGTGCAG,11100 fluorescence intensity (a.u.)
18,TGACAAATCTATTCTATTTTACTTTATTTTTTTATTTTTCCGGAGTCACCTAGTGCAG,8980 fluorescence intensity (a.u.)
19,CCCTCCGCCGCCGCTGCCGGCCTGCTGCTCTGCTGCCGCGCGGAGTCACCTAGTGCAG,9230 fluorescence intensity (a.u.)
20,AAGGTAGAGGAGGAGAAGTTGGGGTTTGGGAGGGCCAGCGCGGAGTCACCTAGTGCAG,11600 fluorescence intensity (a.u.)
21,CCCACTCCTCGCCGCGCTGCCAAATGTACGTCGCTGCCACCGGAGTCACCTAGTGCAG,8590 fluorescence intensity (a.u.)

row,Sequence,binding signal
1,GTCGGACTCCTATTTCCTTTAGAATTCTTGCCAAATCATACGGAGTCACCTAGTGCAG,8910 fluorescence intensity (a.u.)
2,TCCGCGGGTTCGTCCGCTTCTTCAACCTCTCCACCGGCGCCGGAGTCACCTAGTGCAG,8300 fluorescence intensity (a.u.)
3,GCATCCGTCCGTCAACGCACATCGTCACTGCTGCTTCCTGCGGAGTCACCTAGTGCAG,15700 fluorescence intensity (a.u.)
4,ACACCACTCTCTCGCCCACTGTTTTTCTCTTGTGCAGGGACGGAGTCACCTAGTGCAG,8920 fluorescence intensity (a.u.)
5,CGAACTATTTTGACCACCCGTATGCATCTTGTTGGTTCTGCGGAGTCACCTAGTGCAG,9050 fluorescence intensity (a.u.)
6,ATCCCCACGCGCGCGCTACTCACTCCCTCCGGCCGTCCCACGGAGTCACCTAGTGCAG,8150 fluorescence intensity (a.u.)
7,TCACTGTTACCCGTTCACATTAGTCGCTGTTCCAGTCTTCCGGAGTCACCTAGTGCAG,10700 fluorescence intensity (a.u.)
8,CCCTGGTGTTTGGATTTGGTTGTTCCTCGCGATTGCATTTCGGAGTCACCTAGTGCAG,15600 fluorescence intensity (a.u.)
9,TGTGGTGTAGGGGCGAATTTTGAACTCGGTGACAAATTGACGGAGTCACCTAGTGCAG,9310 fluorescence intensity (a.u.)
10,TCATCGTGGACACGTACCCTCGTGCATGCGCGCATGGTGTCGGAGTCACCTAGTGCAG,8050 fluorescence intensity (a.u.)
11,TACACCAAATTGACTAGGCATATATTTGTACCACTCATTCCGGAGTCACCTAGTGCAG,8290 fluorescence intensity (a.u.)
12,GGTGCATTCTCCTCCGCTGTATCTACTCGCCAACTCCCTACGGAGTCACCTAGTGCAG,8800 fluorescence intensity (a.u.)
13,TCATTTTTCTCACCTACCTCCACTACTCATTCAATCACAACGGAGTCACCTAGTGCAG,9570 fluorescence intensity (a.u.)
14,CACTCGACTCCAACTATAGTCAACTCCCATAAACAAAACTCGGAGTCACCTAGTGCAG,8120 fluorescence intensity (a.u.)
15,ATCGGGGTTGTTGTTTTTGTAGCTGCTTAAGCTTTTTATTCGGAGTCACCTAGTGCAG,14100 fluorescence intensity (a.u.)
16,AATTTTGGCATGTATGTGAGGTTGCATCTTTACTTGTACACGGAGTCACCTAGTGCAG,9560 fluorescence intensity (a.u.)
17,TGTTGTTGTTGGGGTGTTCGCGGCCGATTTGACCCCGGGGCGGAGTCACCTAGTGCAG,10900 fluorescence intensity (a.u.)
18,TCCATCTGGCGAGCAGAGCAGGGCAGGGGAGGGGATCCTGCGGAGTCACCTAGTGCAG,11700 fluorescence intensity (a.u.)
19,AGTGTTCTTTCTTTAGCTTCACATTTGTGATTTTCCTAGGCGGAGTCACCTAGTGCAG,8370 fluorescence intensity (a.u.)
20,ACCCACTTTCGACTCCATGAATTTCATCACATTTGTTTTACGGAGTCACCTAGTGCAG,18600 fluorescence intensity (a.u.)
21,GAGTCCTCATCGGGTCCGGGCGCGCGCCACACACAACTCCCGGAGTCACCTAGTGCAG,8480 fluorescence intensity (a.u.)

# Source: publication PMC7819943, “Rice protein-binding microarrays: a tool to detect cis-acting elements near promoter regions in rice”
